Assay results taken from PubChem BioAssay AID330 (DTP/NCI, 2004).
The list is a part of this screen's results and no random one: it is rich in T/C values a quarter to a half above the control, in often repeated tests (any T/C) and in doses without a T/C. Further doses and runs are listed elsewhere. T/C gives the treated animals as a percentage of the vehicle group. Some entries give survivors of the animals treated and no T/C: the source files T/C as zero there, which appears to mark a toxic dose or a test without result, not a measured value. Some survivor counts are full or nearly so, which does not show that the dose was tolerated: survival well below the control is almost never listed, so the zero probably covers shortened survival too. Counts of survivors are from the toxicity check (mostly the fifth day) where no day follows; animals may have died later. Schedules are NCI's codes, taken here to give the interval after Q, in days (D) or hours (H), and the number of doses after X. For survival time, the PubChem record calls one and a half times the control and up active, and a quarter to a half above the control has no call in these data; cut-offs in other NCI protocols can differ.

Tested on: P388 leukemia ip, CD2F1 mice, survival T/C
Assay: NCI In Vivo Anticancer Drug Screen. Data for tumor model P388 Leukemia (intraperitoneal) in CD2F1 (CDF1) mice
Settings: T/C endpoint: median survival time, higher T/C = longer survival
[1] = dose: 100.0 mg/kg/injection, schedule: Q01DX009 (ip), vehicle: saline with Tween-80
[2] = dose: 200.0 mg/kg/injection, schedule: Q01DX009 (ip), vehicle: saline with Tween-80
[3] = dose: 400.0 mg/kg/injection, schedule: Q04DX003 (ip), vehicle: saline

## N#CN=[N+]([O-])c1cccc(Cl)c1
dose: 50.0 mg/kg/injection, schedule: Q04DX003 (ip), vehicle: Klucel (hydroxypropylcellulose) (HPC)
  survivor count: 2 of 6

## O=[N+]([O-])c1cccc(SNCCO)c1
[1]
  survivor count: 0 of 6
[2]
  survivor count: 0 of 6

## CC(=O)OC1CC2CCCCC2[N+](C)(C)C1 (stereo not given)
dose: 100.0 mg/kg/injection, schedule: Q04DX003 (ip), vehicle: saline
  survivor count: 6 of 6
dose: 200.0 mg/kg/injection, schedule: Q04DX003 (ip), vehicle: saline
  survivor count: 0 of 6
[3]
  survivor count: 0 of 6

## C/C(=N\NC(=S)N1CCCCC1)c1ccccn1
dose: 25.0 mg/kg/injection, schedule: Q01DX009 (ip), vehicle: saline with Tween-80
  survivor count: 4 of 6

## Nc1nc(N)c2cc(CNc3ccc(C(=O)NC(C(=O)O)C(=O)O)cc3)ccc2n1
dose: 0.4 mg/kg/injection, schedule: Q01DX009 (ip), vehicle: saline
  survivor count: 6 of 6
dose: 0.8 mg/kg/injection, schedule: Q01DX009 (ip), vehicle: saline
  survivor count: 4 of 6
dose: 1.6 mg/kg/injection, schedule: Q01DX009 (ip), vehicle: saline
  survivor count: 2 of 6
dose: 66.0 micrograms/kg/injection, schedule: Q01DX009 (ip), vehicle: saline sonified
  T/C: 131 % of control
dose: 150.0 micrograms/kg/injection, schedule: Q01DX009 (ip), vehicle: saline sonified
  T/C: 127 % of control

## O=C1OCCC(O)=C1C=NCc1ccccc1
dose: 200.0 mg/kg/injection, schedule: Q04DX003 (ip), vehicle: Klucel (hydroxypropylcellulose) (HPC)
  survivor count: 6 of 6
dose: 400.0 mg/kg/injection, schedule: Q04DX003 (ip), vehicle: Klucel (hydroxypropylcellulose) (HPC)
  survivor count: 5 of 6

## CO[C@H]1/C=C/O[C@@]2(C)Oc3c(C)c(O)c4c(O)c(c(/C=N/N5CCCN(Cc6ccccc6)CC5)c(O)c4c3C2=O)NC(=O)/C(C)=C\C=C\[C@H](C)[C@H](O)C(C)[C@@H](O)C(C)[C@H](OC(C)=O)[C@@H]1C (stereo not given in full)
dose: 50.0 mg/kg/injection, schedule: Q01DX009 (ip), vehicle: saline with Tween-80
  T/C: 125 % of control
dose: 50.0 mg/kg/injection, schedule: Q01DX009 (ip), vehicle: suspension in saline
  T/C: 128 % of control
[1]
  T/C: 125 % of control
dose: 100.0 mg/kg/injection, schedule: Q01DX009 (ip), vehicle: suspension in saline
  T/C: 128 % of control
[2]
  survivor count: 4 of 6
dose: 200.0 mg/kg/injection, schedule: Q01DX009 (ip), vehicle: suspension in saline
  survivor count: 6 of 6

## C[n+]1noc([O-])c1-c1ccccc1
[2]
  survivor count: 5 of 6

## CC(=O)Nc1ccc2nc3ccc(NC(C)=O)cc3[n+](-c3ccccc3)c2c1
dose: 15.6 mg/kg/injection, schedule: Q01DX010 (ip), vehicle: saline
  T/C: 145 % of control

## C/C=C1\CN2CCc3c([nH]c4ccccc34)C2CC1C1=CN2c3ccccc3C34CCN5CC6=CCOC1C(C6CC53)C24 (stereo not given)
dose: 19.0 mg/kg/injection, schedule: Q01DX005 (ip), vehicle: Klucel (hydroxypropylcellulose) (HPC)
  survivor count: 6 of 6

## CCC(=O)Nc1ccc(N)cc1
[3]
  survivor count: 2 of 6

## Cc1nc(C)n2cnnc2c1C
[3]
  survivor count: 0 of 6

## O=C(c1ccc(Cl)cc1)n1c(Cl)c(/C=N\Nc2ccc([N+](=O)[O-])cc2[N+](=O)[O-])c2ccccc21
dose: 50.0 mg/kg/injection, schedule: Q01DX001 (ip), vehicle: Klucel (hydroxypropylcellulose) (HPC)
  survivor count: 6 of 6
dose: 100.0 mg/kg/injection, schedule: Q01DX001 (ip), vehicle: Klucel (hydroxypropylcellulose) (HPC)
  survivor count: 6 of 6
dose: 200.0 mg/kg/injection, schedule: Q01DX001 (ip), vehicle: Klucel (hydroxypropylcellulose) (HPC)
  survivor count: 6 of 6

## O=[N+]([O-])c1ccccc1N=NNc1ccccc1
dose: 400.0 mg/kg/injection, schedule: Q01DX009 (ip), vehicle: Klucel (hydroxypropylcellulose) (HPC)
  survivor count: 6 of 6

## CC(C)(C)OC(=O)NCCCCC(NC(=O)OCC1c2ccccc2-c2ccccc21)C(=O)O (stereo not given)
dose: 200.0 mg/kg/injection, schedule: Q01DX005 (ip), vehicle: Klucel (hydroxypropylcellulose) (HPC)
  survivor count: 0 of 6

## CCCCn1c2nc(=O)n(C)c(=O)c-2cc2ccccc21
[1]
  T/C: 132 % of control
  survivor count: 6 of 6

## NNc1ccccn1
dose: 50.0 mg/kg/injection, schedule: Q01DX009 (ip), vehicle: saline
  survivor count: 2 of 6
dose: 100.0 mg/kg/injection, schedule: Q01DX009 (ip), vehicle: saline
  survivor count: 0 of 6
dose: 200.0 mg/kg/injection, schedule: Q01DX009 (ip), vehicle: saline
  survivor count: 0 of 6
